For assay [1], the target named is His6-SUMO-tagged Shank2-SAM domain (T1780-R1849), WT (not stated (human or rat cDNA cloned)) (UniProt Q9UPX8). The assay is described as follows: turbidity (absorbance at 350 nm); His6-SUMO-tagged SAM domains, 10 µM, mixed with Zn2+ in 96-well plates (200 µl); absorbance after 10 min or every 10 s with 10 µM Zn2+; 0.5 M NaCl, 20 mM Tris/HCl pH 7.5; both purified.
Assay [2] addresses His6-SUMO-tagged Shank2-SAM domain (T1780-R1849), L1800W (not stated (human or rat cDNA cloned)) (UniProt Q9UPX8). The description is as above.
Assay [3] deals with T1, His6-SUMO-tagged SH3 to PDZ domains of Shank2 (R520-D727), G643R (not stated (human or rat cDNA cloned)) (UniProt Q9UPX8).
T1 sequence: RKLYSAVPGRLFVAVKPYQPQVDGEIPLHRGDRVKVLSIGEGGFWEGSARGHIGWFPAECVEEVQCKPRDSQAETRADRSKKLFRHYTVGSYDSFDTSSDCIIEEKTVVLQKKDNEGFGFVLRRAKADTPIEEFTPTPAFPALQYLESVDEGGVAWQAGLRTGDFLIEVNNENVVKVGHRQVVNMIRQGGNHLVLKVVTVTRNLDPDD
The assay is described as follows: condition: 1 mM peptide in the syringe, 22 µM protein in the cell; ITC; peptide in the syringe (200 µM; 1 mM for G643R), His6-SUMO SH3-PDZ protein in the cell (20-30 µM); 25 °C; 50 mM Tris-HCl pH 8.0, 100 mM NaCl, 1 mM EDTA; 1:1 binding model; both purified.

Assay [4] addresses His6-SUMO-tagged SH3 to PDZ domains of Shank2 (R520-D727), WT (not stated (human or rat cDNA cloned)) (UniProt Q9UPX8). The assay is described as follows: turbidity (absorbance at 350 nm); His6-SUMO-tagged SAM domains, 10 µM, mixed with Zn2+ in 96-well plates (200 µl); absorbance after 10 min or every 10 s with 10 µM Zn2+; 0.5 M NaCl, 20 mM Tris/HCl pH 7.5; both purified.

Here are results for 4 molecules from article PMC11371640, “Structural deficits in key domains of Shank2 lead to alterations in postsynaptic nanoclusters and to a neurodevelopmental disorder in humans” (Molecular Psychiatry, 2022).

Results are given in words; binding and its absence hold for the method and conditions named. Where a sequence is shown, tags or fusion partners need not be part of it.

B1: His6-SUMO-tagged Shank2-SAM domain (T1780-R1849), WT (domain or fragment, UniProt Q9UPX8-3 1780-1849, looked up)
chain: TKPVHLWTKPDVADWLESLNLGEHKEAFMDNEIDGSHLPNLQKEDLIDLGVTRVGHRMNIERALKQLLDR
notes: Shank2 SAM domain, residues T1780-R1849; numbers count on: NM_012309.5 (isoform of 1849 residues); also called SUMO-SAM fusion; WT SAM domain; source: E. coli BL21(DE3), purified (Ni-NTA agarose, G-25); not shown: His6, N-terminal, kept; SUMO, N-terminal, kept
As to B1, the binding entry in assay [1] is reported as “no binding (condition: 2 µM Zn2+)”.

B2: His6-SUMO-tagged Shank2-SAM domain (T1780-R1849), L1800W (domain or fragment, UniProt Q9UPX8-3 1780-1849, looked up)
chain: TKPVHLWTKPDVADWLESLNWGEHKEAFMDNEIDGSHLPNLQKEDLIDLGVTRVGHRMNIERALKQLLDR
notes: Shank2 SAM domain, residues T1780-R1849, patient variant L1800W; numbers count on: NM_012309.5 (isoform of 1849 residues); also called L1800W mutant; p.L1800W SAM domain; source: E. coli BL21(DE3), purified (Ni-NTA agarose, G-25); not shown: His6, N-terminal, kept; SUMO, N-terminal, kept
On to B2, for which, in assay [2], the binding result was “no binding (condition: 2 µM Zn2+)”.

B3: synthetic peptide of the C-terminal PDZ ligand of CIRL1/latrophilin (peptide)
peptide: PGPDGDGQMQLVTSL
notes: CIRL1/latrophilin, C-terminal PDZ ligand (15 residues), free N- and C-terminus; also called CIRL1 peptide; source: synthetic peptide (Genscript)
On to B3, for which, in assay [3], the binding result is listed as “no binding”.

B4: His6-SUMO-tagged SH3 to PDZ domains of Shank2 (R520-D727), WT (domain or fragment, UniProt Q9UPX8-3 520-727)
chain: RKLYSAVPGRLFVAVKPYQPQVDGEIPLHRGDRVKVLSIGEGGFWEGSARGHIGWFPAECVEEVQCKPRDSQAETRADRSKKLFRHYTVGSYDSFDTSSDCIIEEKTVVLQKKDNEGFGFVLRGAKADTPIEEFTPTPAFPALQYLESVDEGGVAWQAGLRTGDFLIEVNNENVVKVGHRQVVNMIRQGGNHLVLKVVTVTRNLDPDD
Take B4: the binding result in assay [4] is “no binding (tested: 10 µM protein with 10 µM Zn2+)”.
